These results are taken from the supplement of paper PMC9877034.

Structures can show the parent of a compound that is named as a salt. In all, about 1,000 compounds were measured (“cFRET/donor change relative to DMSO, normalised to beta-lapachone positive control (supercomplex I-IV assembly)”: median about 0.18, lowest 2% from about -1 on). The list shows a part of the results.

The test system of this experiment is C2C12 (NDUFB8-AcGFP / COX8A-DsRed-Monomer FRET reporter). Briefly: cFRET/donor change relative to DMSO, normalised to beta-lapachone positive control (supercomplex I-IV assembly) (fraction of beta-lapachone effect); higher = more respiratory supercomplex assembly. The settings on record: 40 µM; 24 h. The procedure: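 Cells were treated with 40 uM compound for 24 h and imaged on an IN Cell Analyzer 6000. Corrected FRET was divided by donor signal (cFRET/donor) and measured in two replicate experiments. The score is (mean cFRET/donor of compound - mean DMSO) / (mean beta-lapachone 40 uM - mean DMSO). Compounds flagged for prominent cell death, abnormal morphology or decreased cell number were excluded.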
Consider `NC(=O)CC[C@H](N)C(=O)O` [L-Glutamine], for which the cFRET/donor change was found to be 0.414. In the case of `CCN(CC)CCOc1ccc(Nc2ncc3cc(-c4c(Cl)cccc4Cl)c(=O)n(C)c3n2)cc1` it was -5.45; in that of `Nc1nc(OCC2CCCCC2)c2[nH]cnc2n1`, 0.33. In the case of `CC(C)OC(=O)C(C)(C)Oc1ccc(C(=O)c2ccc(Cl)cc2)cc1` [Fenofibrate] it was 0.22; in that of `CC(C)(C)c1ccc(S(=O)(=O)/C=C/C#N)cc1`, -0.176; in that of `O=Nc1ccc2oc(=O)ccc2c1` [6-Nitroso-1,2-benzopyrone], -1.07. In the case of `O=C(O)c1cc(=O)c2c(Cl)cc(Cl)cc2[nH]1` [5,7-Dichlorokynurenic acid] it was 0.316; in that of `CCCCN(CCCC)CC(O)c1cc(Cl)cc2c1-c1ccc(Cl)cc1/C2=C/c1ccc(Cl)cc1` (stereo not drawn) [Lumefantrine], 0.354. `CN/C(=N\CCSCc1nc[nH]c1C)NC#N` [Cimetidine] showed a cFRET/donor change of 0.3.

Compound `c1ccc(C2CN3CCSC3=N2)cc1` (single isomer, unassigned; (-)) [Tetramisole hydrochloride] registered a cFRET/donor change of 0.0938.

`c1ccc(C2CN3CCSC3=N2)cc1` (single isomer, unassigned; (-)) [(-)-Tetramisole hydrochloride] came in with a cFRET/donor change of 0.472.

`O=C(O)c1cc2cc(Cc3cccnc3)ccc2o1` [Furegrelate sodium] came in with a cFRET/donor change of 0.44. In the case of `CCOC(=O)c1cnc2c(cnn2CC)c1NN=C(C)C` [Etazolate hydrochloride] it was 0.546; in that of `COc1cc2ncnc(Nc3cccc(Cl)c3)c2cc1OC` [Tyrphostin AG 1478], 0.19; in that of `CC(C)(C)c1ccc(C(=O)CCCN2CCC(OC(c3ccccc3)c3ccccc3)CC2)cc1` [Ebastine], 0.57. In turn, `CCCCNc1cc(C(=O)O)cc(S(N)(=O)=O)c1Oc1ccccc1` [Bumetanide] registered a cFRET/donor change of -0.215. With `Fc1ccc2[nH]c(CN3CCN(c4ccccn4)CC3)cc2c1` the figure was 0.168. In the case of `CCCCCCCCCC[Si](C)(C)CCC(=O)NC(Cc1ccc(C)cc1)c1ccccc1` (stereo not drawn) [Sandoz 58-035] it was 0.228. For `CCCCS(=N)(=O)CCC(N)C(=O)O` (racemic) [DL-Buthionine-[S,R]-sulfoximine], the cFRET/donor change is -0.0991.

`NC(=O)OCC(COC(N)=O)c1ccccc1` [Felbamate] gave a cFRET/donor change of 0.334. In turn, `COCc1nc2c([nH]1)c(=O)n(C)c(=O)n2CC(C)C` [8-Methoxymethyl-3-isobutyl-1-methylxanthine] yielded a cFRET/donor change of 0.383. In turn, `O=c1cc(-c2ccccc2)[nH]c2nc(Cl)ccc12` [7-Chloro-4-hydroxy-2-phenyl-1,8-naphthyridine] returned a cFRET/donor change of -1.98. `CC(=O)N[C@@H](CS)C(=O)O` [N-Acetyl-L-Cysteine] yielded a cFRET/donor change of -0.204.

`N[C@@H](CCCC(=O)O)C(=O)O` [L-2-aminoadipic acid] came in with a cFRET/donor change of -0.139.

The compound `O=c1[nH]c2cc(C(F)(F)F)ccc2n1-c1cc(C(F)(F)F)ccc1O` returned a cFRET/donor change of 0.0362.

`NC1CCN(O)C1=O` (racemic) returned a cFRET/donor change of 0.00776. With `Cn1ccnc1` [1-Methylimidazole] the figure was -0.165; with `CCN(CC)CCOC(=O)c1ccc(N)cc1` [Procaine hydrochloride], 0.168; with `C[C@]12C=CC(=O)C=C1CC[C@H]1[C@@H]3C[C@@H](O)[C@](O)(C(=O)CO)[C@@]3(C)C[C@H](O)[C@@]12F` [Triamcinolone], 0.219.

In turn, `CCCCCCCC/C=C\CCCCCCCC(=O)NCCO` [N-Oleoylethanolamine] showed a cFRET/donor change of 0.0922.

`NC[C@@H](O)c1ccc(O)c(O)c1` [L(-)-Norepinephrine bitartrate] registered a cFRET/donor change of 0.167. In the case of `Nc1nc(Cl)nc2c1ncn2[C@@H]1O[C@H](COP(=O)(O)OP(=O)(O)OP(=O)(O)O)[C@H](O)C1O` (stereo partly drawn) [2-Chloroadenosine triphosphate tetrasodium] it was 0.486. With `Oc1cc2c(cc1O)CN(C(=S)NCCc1ccc(Cl)cc1)CCC2` [Capsazepine], the cFRET/donor change came out at 3.43.

The compound `CCCCCCC(=O)OC1CC(C)(C)NC(C)(C)C1` [TMPH hydrochloride] registered a cFRET/donor change of -0.101.

As to `Cc1cc(Cn2cnc3c2C[C@@H](C(=O)O)N(C(=O)C(c2ccccc2)c2ccccc2)C3)ccc1N`, the cFRET/donor change was 0.272. With `O=C1Cc2c([nH]c3ccc(Br)cc23)-c2ccccc2N1` [Kenpaullone] the figure was -0.309. Consider `CNCCCC12CCC(c3ccccc31)c1ccccc12` [Maprotiline hydrochloride], for which the cFRET/donor change was found to be 0.00698. Turning to `Cc1cc(Cl)ccc1OCCCC(=O)NO` [Droxinostat], the cFRET/donor change was 0.131. In the case of `O=C(NCCN1CCOCC1)c1ccc(Cl)cc1` [Moclobemide] it was -0.177. In the case of `CCCC(CCC)C(=O)O[C@H]1C[C@H]2CC[C@@H](C1)[N+]2(C)C` [Anisotropine methyl bromide] it was 0.0542.

`CC(C)NC[C@H](O)COc1cccc2ccccc12` [(S)-Propranolol hydrochloride] had a cFRET/donor change of 0.157.

`O=c1c(-c2ccc(O)cc2)coc2cc(O)ccc12` [Daidzein] came in with a cFRET/donor change of 0.201. With `C[C@H]1O[C@@H](n2cc(F)c(=O)[nH]c2=O)[C@H](O)[C@@H]1O` [5-fluoro-5'-deoxyuridine] the figure was 0.0814. In the case of `O=C(O)C=C1CCCc2ccccc2C1O` (stereo not drawn) it was 0.355. As for `CC(=O)CCCCn1c(=O)c2c(ncn2C)n(C)c1=O` [Pentoxifylline], the cFRET/donor change was determined as 0.111. The compound `CCOC(=O)c1ncn2c1CN(C)C(=O)c1cc(F)ccc1-2` [Flumazenil] displayed a cFRET/donor change of 0.392. With `O=NN(CCCl)C(=O)NCCCl` [Carmustine] the figure was 0.379; with `NCC(O)(CS(=O)(=O)O)c1ccc(Cl)cc1` (stereo not drawn) [2-Hydroxysaclofen], 0.0593. For the compound `CC[C@H](NC(=O)c1c(C)c(-c2ccccc2)nc2ccccc12)c1ccccc1`, the cFRET/donor change was found to be 0.321. With `CC(C(=O)O)c1cccc(C(=O)c2ccccc2)c1` (stereo not drawn) [Ketoprofen] the figure was 0.186. In the case of `Nc1nc(N)c2nc(CNc3ccc(C(=O)N[C@@H](CCC(=O)O)C(=O)O)cc3)cnc2n1` [Aminopterin] it was 0.216; in that of `CN1[C@@H]2CC[C@H]1CC(OC(=O)c1c[nH]c3ccccc13)C2` (stereo partly drawn) [3-Tropanyl-indole-3-carboxylate hydrochloride], 0.435; in that of `CCCCCCCCCCCCCCCCCCOCC(COP(=O)([O-])OCC[N+](C)(C)C)OC` (stereo not drawn), 0.501. In the case of `CCCC1O[C@@H]2C[C@H]3[C@@H]4CCC5=CC(=O)C=C[C@]5(C)[C@H]4[C@@H](O)C[C@]3(C)[C@]2(C(=O)CO)O1` (stereo partly drawn) [Budesonide] it was 0.132; in that of `COc1ccc2[nH]c([S@@+]([O-])Cc3ncc(C)c(OC)c3C)nc2c1` [Esomeprazole magnesium dihydrate], 0.951.

In the case of `CCCCCN(CCCCC)C(=O)C(CCC(=O)O)NC(=O)c1ccc(Cl)c(Cl)c1` (stereo not drawn) [Lorglumide sodium], the cFRET/donor change was 0.132. With `Nc1nc2c(ncn2COCCO)c(=O)[nH]1` [Acyclovir] the figure was 0.178. Turning to `NCCSSCCN` [Cystamine dihydrochloride], the cFRET/donor change amounted to 0.0633.

As for `Cc1cc(NC2CCCCC2)nc(-n2nc(C)cc2C)n1`, the cFRET/donor change stood at 0.569.

Consider `NC(CCCP(=O)(O)O)C(=O)O` (stereo not drawn) [D(-)-2-Amino-5-phosphonopentanoic acid], for which the cFRET/donor change was 0.0246. With `C=C[C@@]1(C)CC(=O)[C@]2(O)[C@@]3(C)[C@@H](O)CCC(C)(C)[C@@H]3[C@H](O)[C@H](OC(C)=O)[C@@]2(C)O1` [Forskolin] the figure was 0.315. On to `Nc1c2c(nc3ccccc13)CCCC2` [9-Amino-1,2,3,4-tetrahydroacridine hydrochloride], for which the cFRET/donor change is -0.0778. For `C[C@]12C[C@H](O)[C@H]3[C@@H](CCC4=CC(=O)CC[C@@]43C)[C@@H]1CC[C@@H]2C(=O)CO` [Corticosterone], the cFRET/donor change came to 0.221.

Consider `O=C1NCCc2[nH]c(-c3ccncc3)cc21`, for which the cFRET/donor change is -0.0657. For the compound `COC(=O)C1=C(C)NC(C)=C(C(=O)OC2CCCN(Cc3ccccc3)C2)C1c1cccc([N+](=O)[O-])c1` (stereo not drawn) [Benidipine hydrochloride], the cFRET/donor change is 0.367.

As to `CCc1ccc2c(-c3cccc(Cl)c3)nc(=O)n(CC)c2n1`, the cFRET/donor change was -0.0171. `COC(=O)C1=C(C)NC(C)=C([N+](=O)[O-])C1c1ccccc1C(F)(F)F` (racemic) displayed a cFRET/donor change of 0.544. `c1ccc(-c2ccccn2)nc1` [2,2'-Bipyridyl] gave a cFRET/donor change of -0.00296.

Consider `COc1ccccc1N1CCN(CCN(C(=O)c2ccc(F)cc2)c2ccccn2)CC1` [p-MPPF dihydrochloride], for which the cFRET/donor change turned out to be 0.296. Turning to `O=C1CN(/N=C/c2ccc(-c3ccc([N+](=O)[O-])cc3)o2)C(=O)N1` [Dantrolene sodium], the cFRET/donor change amounted to 0.452.

Turning to `O=C(c1ccc2c(c1)OCCO2)N1CCCCC1`, the cFRET/donor change is 0.193. The compound `NC(N)=NC(=O)c1nc(Cl)c(N2CCCCCC2)nc1N` [5-(N,N-hexamethylene)amiloride] came in with a cFRET/donor change of 0.351.

The compound `CC1=C(CC(=O)O)c2cc(F)ccc2/C1=C\c1ccc(S(C)(=O)=O)cc1` [Sulindac sulfone] showed a cFRET/donor change of 0.35. `CC(=O)Oc1cc(C(C)C)c(OCCN(C)C)cc1C` [Moxisylyte hydrochloride]: the cFRET/donor change came to 0.564. Turning to `O=C(CCSCc1ccco1)NNC(=O)N1Cc2ccccc2Oc2ccc(Cl)cc21`, the cFRET/donor change worked out at 0.36.

In turn, `CC1=C(/C=C/C(C)=C/C=C/C(C)=C/C(=O)Nc2ccc(O)cc2)C(C)(C)CCC1` [Retinoic acid p-hydroxyanilide] gave a cFRET/donor change of 0.885. In the case of `CN(C)CCC=C1c2ccccc2C=Cc2ccccc21` [Cyclobenzaprine hydrochloride] it was 0.462. As to `NS(=O)(=O)c1cc2c(cc1Cl)NCNS2(=O)=O` [Hydrochlorothiazide], the cFRET/donor change was -0.0537. With `CC1CCN=C(N)S1` (racemic) [(±)-AMT hydrochloride] the figure was 0.00413; with `Cc1nc(N=Nc2ccc(C(=O)O)cc2)c(COP(=O)(O)O)c(C=O)c1O`, 0.439. Compound `Oc1ccc(O)cc1` [Hydroquinone] gave a cFRET/donor change of 1.03. With `C[C@H]1C[C@H]2[C@@H]3CCC4=CC(=O)C=C[C@]4(C)[C@@]3(Cl)[C@@H](O)C[C@]2(C)[C@@]1(O)C(=O)CO` [Beclomethasone], the cFRET/donor change was -0.266. With `CC(=O)OCC(=O)[C@@]1(O)CC[C@H]2[C@@H]3CCC4=CC(=O)CC[C@]4(C)[C@H]3C(=O)C[C@@]21C` [Cortisone 21-acetate] the figure was 0.339.
